From paper PMC12749359, “Chromosome compartment assembly is essential for subtelomeric gene silencing in trypanosomes” (Nature Communications, 2025)
No constants are given. Whether binding was seen depends on the method and setting. Binding seen in cells or lysates may run through a third protein. Binding calls can cover weak binding; strength is not graded here.

Chains of the proteins cited; added tags and fusions are not shown. Lines headed by an entry give the natural chain unless they say otherwise; changes in a name come on top.
UniProt Q385E2: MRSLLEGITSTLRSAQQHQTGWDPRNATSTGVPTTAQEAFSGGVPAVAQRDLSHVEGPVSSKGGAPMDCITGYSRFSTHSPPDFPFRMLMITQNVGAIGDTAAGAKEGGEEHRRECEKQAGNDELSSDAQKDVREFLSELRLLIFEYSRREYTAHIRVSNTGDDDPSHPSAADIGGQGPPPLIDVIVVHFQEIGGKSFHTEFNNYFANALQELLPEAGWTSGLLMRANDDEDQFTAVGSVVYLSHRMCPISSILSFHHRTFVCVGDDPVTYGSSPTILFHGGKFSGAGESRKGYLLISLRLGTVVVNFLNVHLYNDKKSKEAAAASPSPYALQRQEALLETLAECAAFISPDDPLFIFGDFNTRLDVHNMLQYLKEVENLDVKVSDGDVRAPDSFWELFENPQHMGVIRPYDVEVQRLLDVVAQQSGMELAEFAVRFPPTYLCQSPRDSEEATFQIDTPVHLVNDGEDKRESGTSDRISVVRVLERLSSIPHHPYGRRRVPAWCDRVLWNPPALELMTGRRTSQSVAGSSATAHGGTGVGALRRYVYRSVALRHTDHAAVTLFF
UniProt Q387L4: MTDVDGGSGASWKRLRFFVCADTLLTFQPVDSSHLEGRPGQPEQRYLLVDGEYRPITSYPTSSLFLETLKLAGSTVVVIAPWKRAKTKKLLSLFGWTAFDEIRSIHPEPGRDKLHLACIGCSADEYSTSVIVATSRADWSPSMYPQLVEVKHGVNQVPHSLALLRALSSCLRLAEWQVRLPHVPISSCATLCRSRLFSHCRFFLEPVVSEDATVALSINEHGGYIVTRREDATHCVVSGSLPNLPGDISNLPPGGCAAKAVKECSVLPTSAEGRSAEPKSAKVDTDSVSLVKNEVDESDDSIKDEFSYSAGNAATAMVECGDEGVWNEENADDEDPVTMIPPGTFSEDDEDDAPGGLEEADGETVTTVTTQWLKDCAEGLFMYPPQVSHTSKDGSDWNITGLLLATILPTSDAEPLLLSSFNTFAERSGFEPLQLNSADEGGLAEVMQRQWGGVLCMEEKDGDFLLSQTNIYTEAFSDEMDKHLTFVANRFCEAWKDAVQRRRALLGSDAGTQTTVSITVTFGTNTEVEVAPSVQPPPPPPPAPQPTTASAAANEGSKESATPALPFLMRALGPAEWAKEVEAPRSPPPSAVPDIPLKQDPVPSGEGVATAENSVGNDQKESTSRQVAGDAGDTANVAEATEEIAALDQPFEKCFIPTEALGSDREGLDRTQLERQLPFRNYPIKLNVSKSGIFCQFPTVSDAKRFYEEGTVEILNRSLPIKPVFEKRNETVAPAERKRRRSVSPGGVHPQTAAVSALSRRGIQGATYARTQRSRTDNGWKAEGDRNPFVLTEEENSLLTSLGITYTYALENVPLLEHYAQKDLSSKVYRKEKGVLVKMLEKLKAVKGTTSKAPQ
UniProt Q57YW5: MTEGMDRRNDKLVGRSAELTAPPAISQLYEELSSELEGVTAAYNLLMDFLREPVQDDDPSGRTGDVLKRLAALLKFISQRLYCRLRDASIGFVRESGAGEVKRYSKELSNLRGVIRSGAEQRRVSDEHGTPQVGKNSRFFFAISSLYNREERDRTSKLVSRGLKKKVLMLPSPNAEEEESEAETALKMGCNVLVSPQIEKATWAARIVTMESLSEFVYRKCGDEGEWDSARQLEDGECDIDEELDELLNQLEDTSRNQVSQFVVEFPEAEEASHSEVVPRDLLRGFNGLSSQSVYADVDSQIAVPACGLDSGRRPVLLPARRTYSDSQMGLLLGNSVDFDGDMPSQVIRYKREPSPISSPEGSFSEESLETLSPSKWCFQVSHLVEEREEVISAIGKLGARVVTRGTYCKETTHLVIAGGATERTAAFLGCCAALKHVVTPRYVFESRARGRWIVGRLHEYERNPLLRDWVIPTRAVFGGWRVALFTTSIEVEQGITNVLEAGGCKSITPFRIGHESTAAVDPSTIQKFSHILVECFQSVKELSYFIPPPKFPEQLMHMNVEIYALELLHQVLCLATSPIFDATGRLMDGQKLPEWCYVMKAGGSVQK
UniProt Q382T9: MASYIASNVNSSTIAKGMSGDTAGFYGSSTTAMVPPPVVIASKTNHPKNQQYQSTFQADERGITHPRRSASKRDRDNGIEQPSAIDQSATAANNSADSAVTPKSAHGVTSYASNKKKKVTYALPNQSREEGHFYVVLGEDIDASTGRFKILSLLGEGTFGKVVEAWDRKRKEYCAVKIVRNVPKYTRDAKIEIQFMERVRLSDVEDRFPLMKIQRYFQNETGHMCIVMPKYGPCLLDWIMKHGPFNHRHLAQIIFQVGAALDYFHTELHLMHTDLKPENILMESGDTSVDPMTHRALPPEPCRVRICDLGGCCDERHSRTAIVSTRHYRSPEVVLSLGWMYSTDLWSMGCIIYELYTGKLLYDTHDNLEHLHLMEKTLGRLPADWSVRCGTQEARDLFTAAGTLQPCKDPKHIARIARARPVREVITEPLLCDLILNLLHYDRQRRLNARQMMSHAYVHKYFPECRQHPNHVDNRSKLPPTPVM
UniProt Q384C0: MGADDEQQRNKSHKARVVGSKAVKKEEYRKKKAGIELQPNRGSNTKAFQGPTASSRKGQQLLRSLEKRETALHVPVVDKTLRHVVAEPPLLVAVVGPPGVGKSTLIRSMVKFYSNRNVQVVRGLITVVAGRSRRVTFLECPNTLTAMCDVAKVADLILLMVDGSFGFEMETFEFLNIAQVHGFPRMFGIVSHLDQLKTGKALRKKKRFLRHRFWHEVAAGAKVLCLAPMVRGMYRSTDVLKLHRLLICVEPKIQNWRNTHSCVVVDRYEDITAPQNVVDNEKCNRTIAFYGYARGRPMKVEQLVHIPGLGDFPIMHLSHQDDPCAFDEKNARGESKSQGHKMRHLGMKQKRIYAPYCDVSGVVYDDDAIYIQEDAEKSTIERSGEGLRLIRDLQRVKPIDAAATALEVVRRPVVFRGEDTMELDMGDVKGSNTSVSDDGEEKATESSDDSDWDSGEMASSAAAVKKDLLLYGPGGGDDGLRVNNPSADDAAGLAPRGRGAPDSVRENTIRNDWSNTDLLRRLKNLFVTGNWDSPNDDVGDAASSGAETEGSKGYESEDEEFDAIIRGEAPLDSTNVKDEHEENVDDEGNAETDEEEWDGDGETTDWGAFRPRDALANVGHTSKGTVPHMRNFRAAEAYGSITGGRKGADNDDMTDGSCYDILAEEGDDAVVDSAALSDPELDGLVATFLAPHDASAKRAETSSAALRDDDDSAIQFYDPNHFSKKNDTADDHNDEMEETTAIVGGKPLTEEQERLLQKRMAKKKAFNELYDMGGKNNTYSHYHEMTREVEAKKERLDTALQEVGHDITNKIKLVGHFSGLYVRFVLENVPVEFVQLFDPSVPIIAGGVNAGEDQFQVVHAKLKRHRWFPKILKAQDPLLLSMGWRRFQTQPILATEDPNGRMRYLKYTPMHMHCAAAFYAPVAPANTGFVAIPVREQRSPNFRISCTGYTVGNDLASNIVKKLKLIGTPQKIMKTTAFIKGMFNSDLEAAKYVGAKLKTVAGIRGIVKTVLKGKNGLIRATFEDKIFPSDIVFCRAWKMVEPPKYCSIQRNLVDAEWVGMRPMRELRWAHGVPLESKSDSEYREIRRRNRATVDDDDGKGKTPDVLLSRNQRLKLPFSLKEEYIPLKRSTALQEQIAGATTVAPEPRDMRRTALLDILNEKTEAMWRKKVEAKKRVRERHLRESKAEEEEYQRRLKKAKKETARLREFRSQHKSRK
UniProt Q57ZK1: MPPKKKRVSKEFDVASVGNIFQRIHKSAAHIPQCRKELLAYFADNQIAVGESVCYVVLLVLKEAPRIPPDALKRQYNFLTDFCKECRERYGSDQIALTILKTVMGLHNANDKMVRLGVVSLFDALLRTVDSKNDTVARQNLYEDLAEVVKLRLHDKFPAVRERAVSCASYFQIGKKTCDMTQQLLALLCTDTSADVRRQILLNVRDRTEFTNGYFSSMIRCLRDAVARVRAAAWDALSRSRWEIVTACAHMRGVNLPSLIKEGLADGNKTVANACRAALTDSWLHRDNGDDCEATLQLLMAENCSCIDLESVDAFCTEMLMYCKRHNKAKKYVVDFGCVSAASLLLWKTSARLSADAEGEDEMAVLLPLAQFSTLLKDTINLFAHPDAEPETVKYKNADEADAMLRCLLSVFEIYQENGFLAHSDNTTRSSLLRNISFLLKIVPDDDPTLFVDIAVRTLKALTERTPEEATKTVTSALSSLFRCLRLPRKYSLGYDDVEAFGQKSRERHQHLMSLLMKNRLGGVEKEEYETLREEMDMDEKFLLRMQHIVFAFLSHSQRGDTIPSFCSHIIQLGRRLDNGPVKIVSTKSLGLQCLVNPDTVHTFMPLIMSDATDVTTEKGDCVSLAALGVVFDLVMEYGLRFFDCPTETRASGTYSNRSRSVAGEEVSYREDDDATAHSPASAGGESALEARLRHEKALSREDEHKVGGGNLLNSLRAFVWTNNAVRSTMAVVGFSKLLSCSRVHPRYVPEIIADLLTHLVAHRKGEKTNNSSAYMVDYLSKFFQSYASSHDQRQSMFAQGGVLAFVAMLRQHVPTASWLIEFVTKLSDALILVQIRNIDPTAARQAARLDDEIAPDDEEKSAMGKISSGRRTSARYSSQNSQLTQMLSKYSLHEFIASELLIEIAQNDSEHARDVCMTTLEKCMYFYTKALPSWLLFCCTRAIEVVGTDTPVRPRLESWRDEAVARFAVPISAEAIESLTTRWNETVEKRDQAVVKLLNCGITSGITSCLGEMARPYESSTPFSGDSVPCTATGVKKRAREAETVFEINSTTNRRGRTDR

Legend:
Experiment in all cases: cross-linking; in vivo DSS (0.25 mM, 10 min, 37 °C) cross-linking of T. brucei bloodstream forms, anti-V5 immunoprecipitation of PIP5Pase-V5, LC-MS/MS; cross-linked peptide pairs by Kojak, FDR 1%, 11 replicates
[1] = target: phosphatidylinositol phosphate 5-phosphatase, V5-tagged (T. brucei) (UniProt Q385E2)
[2] = target: repressor-activator protein 1 (T. brucei (endogenous in bloodstream forms)) (UniProt Q387L4)
[3] = target: SMC5-SMC6 complex localization factor protein 1 (T. brucei (endogenous in bloodstream forms)) (UniProt Q57YW5)

Substance | binding [1] | binding [2] | binding [3]
KKT19, kinetochore complex Cdc2-like protein kinase (from UniProt Q382T9) (enzyme) | binds | – | –
Nop136 (from UniProt Q384C0) | binds | binds | –
condensin subunit 3 (from UniProt Q57ZK1) | – | – | binds
SMC5-SMC6 complex localization factor protein 1 (from UniProt Q57YW5) | binds | – | –
